Results are given in words; binding and its absence hold for the method and conditions named. For part of these data: Binding seen in cells or lysates may run through a third protein. Some results given as binding are weak or reduced against the parent protein; the word gives no strength. For part of these data: Sequences can lack the tags named with a protein.
Columns and labels:
[1] = biological target: GST-tagged JAM-B C-terminal tail (amino acids 257-299) (mouse) (UniProt Q9JI59); assay: pull-down
[2] = biological target: GST-tagged filamin A C-terminal tail (amino acids 2264-2648) (UniProt P21333); assay: pull-down
[3] = biological target: GST-tagged β-catenin C-terminal tail (amino acids 734-782) (mouse) (UniProt Q02248); assay: pull-down
GFP-rhodopsin (human) = GFP-rhodopsin (human) (UniProt P08100); assay: co-IP
[4] = biological target: rhodopsin, endogenous in human retina (human (endogenous in retina)) (UniProt P08100); assay: proximity ligation
JAM-B (yeast two-hybrid) = biological target: T1, JAM-B (yeast two-hybrid) (UniProt Q9JI59); assay: two-hybrid
T1 sequence: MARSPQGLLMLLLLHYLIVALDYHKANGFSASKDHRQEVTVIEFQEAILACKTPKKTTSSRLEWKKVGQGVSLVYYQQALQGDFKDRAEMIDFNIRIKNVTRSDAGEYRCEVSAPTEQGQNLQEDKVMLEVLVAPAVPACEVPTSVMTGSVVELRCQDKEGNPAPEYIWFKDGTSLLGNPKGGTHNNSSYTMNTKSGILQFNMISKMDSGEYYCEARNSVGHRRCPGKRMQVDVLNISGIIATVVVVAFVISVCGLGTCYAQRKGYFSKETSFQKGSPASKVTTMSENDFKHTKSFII

Chains of the proteins cited; added tags and fusions are not shown. Lines headed by an entry give the natural chain unless they say otherwise; changes in a name come on top. A line that says so, or that is headed by a name, gives the form on record, which may keep a tag or linker. Residues count along the entry.
UniProt P21333: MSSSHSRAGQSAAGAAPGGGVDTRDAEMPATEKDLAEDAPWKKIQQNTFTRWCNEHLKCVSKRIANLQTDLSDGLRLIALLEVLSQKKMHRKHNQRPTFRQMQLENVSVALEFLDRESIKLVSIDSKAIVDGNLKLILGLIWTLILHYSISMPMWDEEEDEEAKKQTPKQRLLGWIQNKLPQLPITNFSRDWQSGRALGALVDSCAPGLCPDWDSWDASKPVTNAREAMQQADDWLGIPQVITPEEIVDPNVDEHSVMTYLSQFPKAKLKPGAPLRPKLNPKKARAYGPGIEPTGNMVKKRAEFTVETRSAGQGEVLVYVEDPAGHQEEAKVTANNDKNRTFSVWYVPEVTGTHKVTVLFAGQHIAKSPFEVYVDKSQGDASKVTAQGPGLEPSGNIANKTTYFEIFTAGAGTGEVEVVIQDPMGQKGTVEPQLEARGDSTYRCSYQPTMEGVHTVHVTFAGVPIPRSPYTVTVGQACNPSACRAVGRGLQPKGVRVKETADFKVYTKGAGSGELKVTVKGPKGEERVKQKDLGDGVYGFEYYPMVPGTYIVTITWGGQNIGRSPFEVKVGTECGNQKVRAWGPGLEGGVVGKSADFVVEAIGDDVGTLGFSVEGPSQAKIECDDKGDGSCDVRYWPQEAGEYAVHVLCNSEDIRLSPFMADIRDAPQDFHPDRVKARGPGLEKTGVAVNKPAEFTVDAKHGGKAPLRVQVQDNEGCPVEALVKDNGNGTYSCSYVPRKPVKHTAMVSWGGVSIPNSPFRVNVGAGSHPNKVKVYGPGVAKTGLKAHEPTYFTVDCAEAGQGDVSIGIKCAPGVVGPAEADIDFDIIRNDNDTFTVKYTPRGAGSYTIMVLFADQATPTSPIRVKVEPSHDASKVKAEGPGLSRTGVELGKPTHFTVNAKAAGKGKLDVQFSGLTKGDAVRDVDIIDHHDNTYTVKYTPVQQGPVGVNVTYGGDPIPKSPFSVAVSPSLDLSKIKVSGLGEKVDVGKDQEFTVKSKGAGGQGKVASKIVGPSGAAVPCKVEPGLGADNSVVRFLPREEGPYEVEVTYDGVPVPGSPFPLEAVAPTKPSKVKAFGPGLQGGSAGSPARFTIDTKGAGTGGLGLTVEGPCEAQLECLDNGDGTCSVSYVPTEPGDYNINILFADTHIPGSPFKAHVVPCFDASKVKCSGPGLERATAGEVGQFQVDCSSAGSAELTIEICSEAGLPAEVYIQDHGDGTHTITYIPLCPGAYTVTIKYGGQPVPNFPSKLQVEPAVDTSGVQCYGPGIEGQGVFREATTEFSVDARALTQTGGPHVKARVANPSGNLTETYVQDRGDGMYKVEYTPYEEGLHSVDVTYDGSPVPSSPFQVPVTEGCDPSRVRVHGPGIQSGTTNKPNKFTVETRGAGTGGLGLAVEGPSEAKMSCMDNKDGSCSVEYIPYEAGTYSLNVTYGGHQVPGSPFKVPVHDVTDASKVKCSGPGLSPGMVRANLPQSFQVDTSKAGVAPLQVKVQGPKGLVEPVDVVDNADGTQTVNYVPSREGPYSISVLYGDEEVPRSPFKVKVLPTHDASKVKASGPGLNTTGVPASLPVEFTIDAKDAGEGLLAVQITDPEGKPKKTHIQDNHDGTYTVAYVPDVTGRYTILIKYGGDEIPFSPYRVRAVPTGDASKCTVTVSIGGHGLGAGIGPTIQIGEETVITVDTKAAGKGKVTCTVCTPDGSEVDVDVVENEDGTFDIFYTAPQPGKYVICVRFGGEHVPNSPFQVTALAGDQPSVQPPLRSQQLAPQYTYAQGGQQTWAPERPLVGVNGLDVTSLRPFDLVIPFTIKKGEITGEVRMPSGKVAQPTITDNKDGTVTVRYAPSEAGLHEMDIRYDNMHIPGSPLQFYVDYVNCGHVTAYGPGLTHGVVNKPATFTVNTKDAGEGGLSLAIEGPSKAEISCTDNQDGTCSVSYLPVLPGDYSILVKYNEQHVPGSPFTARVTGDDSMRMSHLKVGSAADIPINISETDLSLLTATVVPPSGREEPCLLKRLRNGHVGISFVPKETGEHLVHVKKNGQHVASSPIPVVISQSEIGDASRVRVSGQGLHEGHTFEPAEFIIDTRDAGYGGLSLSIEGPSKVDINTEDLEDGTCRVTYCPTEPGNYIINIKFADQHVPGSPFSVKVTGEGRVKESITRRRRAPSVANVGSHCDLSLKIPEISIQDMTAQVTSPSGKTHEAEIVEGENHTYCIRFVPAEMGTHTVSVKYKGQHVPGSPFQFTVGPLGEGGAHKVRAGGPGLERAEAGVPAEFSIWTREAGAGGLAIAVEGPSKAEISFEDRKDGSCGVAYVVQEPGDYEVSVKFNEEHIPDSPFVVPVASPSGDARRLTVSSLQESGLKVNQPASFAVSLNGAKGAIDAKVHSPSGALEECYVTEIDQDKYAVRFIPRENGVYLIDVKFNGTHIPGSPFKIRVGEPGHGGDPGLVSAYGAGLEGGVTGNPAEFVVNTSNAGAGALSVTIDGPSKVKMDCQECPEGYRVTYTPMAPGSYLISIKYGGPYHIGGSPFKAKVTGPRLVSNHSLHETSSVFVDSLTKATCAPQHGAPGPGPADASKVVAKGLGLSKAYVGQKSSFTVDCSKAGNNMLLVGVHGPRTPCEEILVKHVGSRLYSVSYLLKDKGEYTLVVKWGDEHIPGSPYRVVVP
GST-tagged filamin A C-terminal tail (amino acids 2264-2648): residues 2264-2647 of P21333
UniProt Q02248: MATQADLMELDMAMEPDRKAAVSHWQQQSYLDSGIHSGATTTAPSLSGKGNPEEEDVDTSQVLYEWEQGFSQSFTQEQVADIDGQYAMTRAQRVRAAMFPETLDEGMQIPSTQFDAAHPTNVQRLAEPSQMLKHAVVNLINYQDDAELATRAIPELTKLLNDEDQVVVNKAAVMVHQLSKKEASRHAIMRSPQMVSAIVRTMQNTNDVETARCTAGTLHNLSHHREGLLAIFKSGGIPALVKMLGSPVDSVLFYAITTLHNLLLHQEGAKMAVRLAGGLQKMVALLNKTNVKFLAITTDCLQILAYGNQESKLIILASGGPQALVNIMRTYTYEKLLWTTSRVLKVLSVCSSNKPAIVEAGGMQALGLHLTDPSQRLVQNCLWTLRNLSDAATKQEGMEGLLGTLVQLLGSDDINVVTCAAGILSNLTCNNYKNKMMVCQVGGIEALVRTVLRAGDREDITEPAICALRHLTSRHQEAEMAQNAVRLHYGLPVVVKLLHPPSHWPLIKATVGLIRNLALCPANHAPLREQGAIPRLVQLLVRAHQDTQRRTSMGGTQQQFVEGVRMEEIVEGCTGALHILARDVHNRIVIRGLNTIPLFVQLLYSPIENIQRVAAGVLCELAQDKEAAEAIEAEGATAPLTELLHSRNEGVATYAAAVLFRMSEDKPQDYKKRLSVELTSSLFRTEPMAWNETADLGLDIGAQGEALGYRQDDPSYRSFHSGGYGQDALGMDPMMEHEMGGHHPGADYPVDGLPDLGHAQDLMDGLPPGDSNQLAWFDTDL
GST-tagged β-catenin C-terminal tail (amino acids 734-782): residues 734-781 of Q02248
UniProt P08100: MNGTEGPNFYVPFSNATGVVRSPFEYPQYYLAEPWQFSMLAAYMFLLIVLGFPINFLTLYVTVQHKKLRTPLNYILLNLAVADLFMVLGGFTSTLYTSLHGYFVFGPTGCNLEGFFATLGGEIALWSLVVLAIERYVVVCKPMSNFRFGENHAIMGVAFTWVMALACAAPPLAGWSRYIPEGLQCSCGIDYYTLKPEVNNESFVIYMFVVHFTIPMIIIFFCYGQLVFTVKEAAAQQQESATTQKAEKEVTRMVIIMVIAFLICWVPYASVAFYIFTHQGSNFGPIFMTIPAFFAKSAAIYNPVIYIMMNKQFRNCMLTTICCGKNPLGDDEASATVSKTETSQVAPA

[5] = biological target: filamin A (yeast two-hybrid) (UniProt P21333); assay: two-hybrid
[6] = biological target: β-catenin (yeast two-hybrid) (UniProt Q02248); assay: two-hybrid

B1: His-tagged harmonin_a1 (protein, UniProt Q9Y6N9-1 1-552)
chain: MDRKVAREFRHKVDFLIENDAEKDYLYDVLRMYHQTMDVAVLVGDLKLVINEPSRLPLFDAIRPLIPLKHQVEYDQLTPRRSRKLKEVRLDRLHPEGLGLSVRGGLEFGCGLFISHLIKGGQADSVGLQVGDEIVRINGYSISSCTHEEVINLIRTKKTVSIKVRHIGLIPVKSSPDEPLTWQYVDQFVSESGGVRGSLGSPGNRENKEKKVFISLVGSRGLGCSISSGPIQKPGIFISHVKPGSLSAEVGLEIGDQIVEVNGVDFSNLDHKEAVNVLKSSRSLTISIVAAAGRELFMTDRERLAEARQRELQRQELLMQKRLAMESNKILQEQQEMERQRRKEIAQKAAEENERYRKEMEQIVEEEEKFKKQWEEDWGSKEQLLLPKTITAEVHPVPLRKPKYDQGVEPELEPADDLDGGTEEQGEQDFRKYEEGFDPYSMFTPEQIMGKDVRLLRIKKEGSLDLALEGGVDSPIGKVVVSAVYERGAAERHGGIVKGDEIMAINGKIVTDYTLAEAEAALQKAWNQGGDWIDLVVAVCPPKEYDDELTFF
B1 was tested, and the binding [1] was “binds”, the binding [2] was “binds” and the binding [3] was “binds”.

B2: RFP-harmonin a1 (protein, UniProt Q9Y6N9-1 1-552)
chain: MDRKVAREFRHKVDFLIENDAEKDYLYDVLRMYHQTMDVAVLVGDLKLVINEPSRLPLFDAIRPLIPLKHQVEYDQLTPRRSRKLKEVRLDRLHPEGLGLSVRGGLEFGCGLFISHLIKGGQADSVGLQVGDEIVRINGYSISSCTHEEVINLIRTKKTVSIKVRHIGLIPVKSSPDEPLTWQYVDQFVSESGGVRGSLGSPGNRENKEKKVFISLVGSRGLGCSISSGPIQKPGIFISHVKPGSLSAEVGLEIGDQIVEVNGVDFSNLDHKEAVNVLKSSRSLTISIVAAAGRELFMTDRERLAEARQRELQRQELLMQKRLAMESNKILQEQQEMERQRRKEIAQKAAEENERYRKEMEQIVEEEEKFKKQWEEDWGSKEQLLLPKTITAEVHPVPLRKPKYDQGVEPELEPADDLDGGTEEQGEQDFRKYEEGFDPYSMFTPEQIMGKDVRLLRIKKEGSLDLALEGGVDSPIGKVVVSAVYERGAAERHGGIVKGDEIMAINGKIVTDYTLAEAEAALQKAWNQGGDWIDLVVAVCPPKEYDDELTFF
In the case of B2, the binding (GFP-rhodopsin (human)) is reported as “binds”.

B3: harmonin, endogenous in human retina (protein, UniProt Q9Y6N9 1-552)
chain: MDRKVAREFRHKVDFLIENDAEKDYLYDVLRMYHQTMDVAVLVGDLKLVINEPSRLPLFDAIRPLIPLKHQVEYDQLTPRRSRKLKEVRLDRLHPEGLGLSVRGGLEFGCGLFISHLIKGGQADSVGLQVGDEIVRINGYSISSCTHEEVINLIRTKKTVSIKVRHIGLIPVKSSPDEPLTWQYVDQFVSESGGVRGSLGSPGNRENKEKKVFISLVGSRGLGCSISSGPIQKPGIFISHVKPGSLSAEVGLEIGDQIVEVNGVDFSNLDHKEAVNVLKSSRSLTISIVAAAGRELFMTDRERLAEARQRELQRQELLMQKRLAMESNKILQEQQEMERQRRKEIAQKAAEENERYRKEMEQIVEEEEKFKKQWEEDWGSKEQLLLPKTITAEVHPVPLRKPKYDQGVEPELEPADDLDGGTEEQGEQDFRKYEEGFDPYSMFTPEQIMGKDVRLLRIKKEGSLDLALEGGVDSPIGKVVVSAVYERGAAERHGGIVKGDEIMAINGKIVTDYTLAEAEAALQKAWNQGGDWIDLVVAVCPPKEYDDELTFF
B3 was tested, and the binding [4] was “binds”.

B4: harmonin (yeast two-hybrid) (protein, UniProt Q9Y6N9 1-552)
chain: MDRKVAREFRHKVDFLIENDAEKDYLYDVLRMYHQTMDVAVLVGDLKLVINEPSRLPLFDAIRPLIPLKHQVEYDQLTPRRSRKLKEVRLDRLHPEGLGLSVRGGLEFGCGLFISHLIKGGQADSVGLQVGDEIVRINGYSISSCTHEEVINLIRTKKTVSIKVRHIGLIPVKSSPDEPLTWQYVDQFVSESGGVRGSLGSPGNRENKEKKVFISLVGSRGLGCSISSGPIQKPGIFISHVKPGSLSAEVGLEIGDQIVEVNGVDFSNLDHKEAVNVLKSSRSLTISIVAAAGRELFMTDRERLAEARQRELQRQELLMQKRLAMESNKILQEQQEMERQRRKEIAQKAAEENERYRKEMEQIVEEEEKFKKQWEEDWGSKEQLLLPKTITAEVHPVPLRKPKYDQGVEPELEPADDLDGGTEEQGEQDFRKYEEGFDPYSMFTPEQIMGKDVRLLRIKKEGSLDLALEGGVDSPIGKVVVSAVYERGAAERHGGIVKGDEIMAINGKIVTDYTLAEAEAALQKAWNQGGDWIDLVVAVCPPKEYDDELTFF
With B4 the binding (JAM-B (yeast two-hybrid)) was “binds”, the binding [5] was “binds” and the binding [6] was “binds”.

B5: harmonin_a1-HA (protein, UniProt Q9Y6N9-1 1-552)
chain: MDRKVAREFRHKVDFLIENDAEKDYLYDVLRMYHQTMDVAVLVGDLKLVINEPSRLPLFDAIRPLIPLKHQVEYDQLTPRRSRKLKEVRLDRLHPEGLGLSVRGGLEFGCGLFISHLIKGGQADSVGLQVGDEIVRINGYSISSCTHEEVINLIRTKKTVSIKVRHIGLIPVKSSPDEPLTWQYVDQFVSESGGVRGSLGSPGNRENKEKKVFISLVGSRGLGCSISSGPIQKPGIFISHVKPGSLSAEVGLEIGDQIVEVNGVDFSNLDHKEAVNVLKSSRSLTISIVAAAGRELFMTDRERLAEARQRELQRQELLMQKRLAMESNKILQEQQEMERQRRKEIAQKAAEENERYRKEMEQIVEEEEKFKKQWEEDWGSKEQLLLPKTITAEVHPVPLRKPKYDQGVEPELEPADDLDGGTEEQGEQDFRKYEEGFDPYSMFTPEQIMGKDVRLLRIKKEGSLDLALEGGVDSPIGKVVVSAVYERGAAERHGGIVKGDEIMAINGKIVTDYTLAEAEAALQKAWNQGGDWIDLVVAVCPPKEYDDELTFF
With B5 the binding (GFP-rhodopsin (human)) was “binds”.
